From PMC10163288
Some of the results follow.

B1: il2ra_site2_3nfp_normal_mot_HHH_b2_02437_000000052_0001_42_56_H_._HHH_b1_05520_0001_0000200021_0000001_0 (protein)
chain: SSSSSSDVEELIEEAKRLLEEGNPEEAQRVLAEATHLAFERRDSELFYLIAELLLELWSSSSSSS
B2: il2ra_site1_1z92_normal_mot_73a3237f21306322153cb43486d2ff88_0001_1_af2_000000006_0001_34_49_H_._66959ead3e6c57cb3ef8243f3eb758e0_0001_1_0001_0000300041_0000001 … (protein)
chain: SEAEEELRAAVAARDEAALRAFLQRLLRDTGDPELARQLLRILVKKLGLPEEVLERLLALLDELA
B3: il2ra_site1_3nfp_sap_22_mot_9895c1d898f6985d52506ef494acec2a_0001_1_af2_000000173_0001_18_31_H_._HHH_b2_07414_af2_0001_0000400009_0000001_0_0001_1 (protein)
chain: DEEEAIRHAIETAAEFARVPSWEWEIENGHVTITFKGDDEQVRHASKLIAEMLRSFGIDVEVEVE
B4: il2ra_site2_2erj_sap_20_mot_HHH_b1_06542_af2_000000257_0001_1_17_H_._HHH_b1_06625_0001_0000700039_0000001_0_0001 (protein)
chain: SSSSDESVKAAREFIEKLIEEGDLERAKAYAELAERYLRAAGDEESLRLIEELLEEVEKLLSSSS
B5: il2ra_site2_3nfp_normal_mot_HHH_b2_07498_000000057_0001_1_14_H_._HHH_b2_00986_0002_0000600024_0000001_0 (protein)
chain: SSSSDIEERVKELLEEARELLEEGDRFEAARLVVEATRLAVEGNDPELAREVLELYRLIKGSSSS
B6: il2ra_site1_1z92_sap_21_mot_35b94aac26684153dbcc4bf06a514b74_0001_1_000000068_0001_35_49_H_._HEEHE_2006_af2_0001_0000400023_0000001_0_0001_af2pred_0001_af2pred (protein)
chain: SSSSDEEEAAEEIVREVVEKLGLSEEDREALERDAEQSLRRGISERSVKQALEKAAKRERSSSSS
B7: il2ra_site2_2erj_normal_mot_677c0ffea6ecdb64f8a38b1d430a01c6_0001_af2_000000059_0001_1_15_H_._HHH_b2_08335_0001_0000100001_0000001_0 (protein)
chain: SSSSDEEVREEVERLLEEAKKIEDPHEAAAVVIEAAELAVRNDDEELLREISRIFAELYGSSSSS
B8: il2ra_site2_2erj_normal_mot_HHH_b2_02252_af2_000000112_0001_23_39_H_._HHH_b2_01517_af2_0001_0000900007_0000001_0 (protein)
chain: SSSSSDELEELLQEAKELLEEGNPEEALEAARRAAELAFKLGDHRAFAEIVELAHEIVRHSSSSS
B9: il2ra_site1_2b5i_normal_mot_HHH_b1_01419_af2_000000080_0001_42_53_H_._HHH_b1_08112_af2_0001_0000400046_0000001_0 (protein)
chain: SSSSDEAWEQVEELFLEASRLFRNGNPEEAEKVLEEALRLAEEHNDERAAKQLKEMLERLSSSSS
B10: il2ra_site2_2erj_sap_29_mot_HHH_b2_04712_af2_000000260_0001_42_56_H_._HHH_b1_03205_0001_0000100001_0000001_1_0001 (protein)
chain: SSSSDESLRALEELVEEAEEKNDKERLRLLFEFVRLQLEQLNDPRVEELLELIKKLLEELSSSSS

These binders were tested against il2ra, P01589 (assay: yeast display titration).

Apparent Kd, inactive:
B1 no binding seen, B2 no binding seen, B3 no binding seen, B4 no binding seen, B5 no binding seen, B6 no binding seen, B7 no binding seen, B8 no binding seen, B9 no binding seen, B10 no binding seen
